# Assay results reported in the supplement of paper PMC7824004.
# This is one part of the list. The data scatter; read single values as rough.
# Tested on: Candida albicans SN425
# Assay: biofilm OD600 B-score; higher = more biofilm (less inhibition)
# Details: 10 µM; assay detail: High-throughput adherence inhibition optical density biofilm assay with C. albicans SN425 in RPMI-1640/MOPS pH 7.0, 384-well plates. …
# Experimental: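 High-throughput adherence inhibition optical density biofilm assay with C. albicans SN425 in RPMI-1640/MOPS pH 7.0, 384-well plates. Compound (10 µM) was present only during the 90 min adherence step, then washed out, and the biofilm grew 24 h without compound. Biofilm was read as OD600 after removing the media. Scores are the difference from the mean in standard deviations and the plate B-score.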
row,Structure (SMILES),biofilm OD600 B-score
1,CCN1CCN(Cc2ccc(Br)s2)CC1,0.12
2,CN(C)C(=O)Oc1ccc(OC(=O)N(C)C)cc1,-1.07
3,CCCN1CCC(NCC2CCCO2)CC1 (configuration not stated),-1.4
4,OC(c1ccccc1)(c1ccccc1)c1cnc[nH]1,1.53
5,O=C(c1ccc(Cl)cc1)N1CCOCC1,0.552
6,CC(C)N1CCN(Cc2cccn2C)CC1,-1.54
7,CCC(N)C(=O)c1ccc(Br)cc1 (configuration not stated),-0.344
8,CCOc1ccccc1N1CCN(Cc2cccnc2)CC1,0.427
9,Cc1cccc(CN2C[C@@H]3C[C@@H](C2)c2cccc(=O)n2C3)c1,0.049
10,NCCc1ccc(S(N)(=O)=O)cc1,0.0295
11,Fc1ccc(N2CCN(Cc3cccc(F)c3)CC2)cc1,0.0203
12,CN1CCN(Cc2ccsc2)CC1,-0.654
13,Fc1ccc(N2CCN(CCc3ccccc3)CC2)cc1,2.43
14,CC(=O)c1ccc(N2CCN(Cc3ccc(C)cc3)CC2)cc1,-0.0203
15,CCN1CCN(Cc2ccccc2OC)CC1,0.0083
16,OCCN1CCN(Cc2ccc(Cl)c(Cl)c2)CC1,0.895
17,CN1CCN(Cc2cccc(F)c2)CC1,-0.828
18,CSc1ccc(CN2CCN(C)CC2)cc1,-0.0336
19,c1ccc(CN2CCN(Cc3ccc4c(c3)OCCO4)CC2)cc1,0.0175

# Ordered by SMILES length (smallest number first): part of the list above.
row,Structure (SMILES),biofilm OD600 B-score
3,CCCN1CCC(NCC2CCCO2)CC1 (configuration not stated),-1.4
10,NCCc1ccc(S(N)(=O)=O)cc1,0.0295
19,c1ccc(CN2CCN(Cc3ccc4c(c3)OCCO4)CC2)cc1,0.0175

# Additional compounds follow.

row,Structure (SMILES),biofilm OD600 B-score
1,C=C(C)CN(CC)C1CCN(C)CC1,-1.82
2,CC1(C)[C@H]2CC=C(CN3CCC(O)CC3)[C@@H]1C2,-3.68
3,CCCCOc1ccc(CN2CCN(C)CC2)cc1,1.42
4,COc1ccc(CN2CCN(C)CC2)c(C)c1C,1.79
5,NCCc1c[nH]c2ccc(OCc3ccccc3)cc12,1.83
6,CN1CCC(NC2C3CC4CC(C3)CC2C4)CC1 (configuration not stated),0.76
7,CC(C)c1ccc(CN2CCN(CCO)CC2)cc1,-0.536
8,O=c1[nH]c2ccccc2c(=O)n1-c1ccccc1F,0.0773
9,Cc1[nH]c2c(Cl)cccc2c1CCN,0.251
10,O=C(Nc1cccc(OC(=O)N2CCCCC2)c1)N1CCOCC1,-0.613
11,C=CC1CN2CCC1CC2[C@H](O)c1ccnc2ccccc12 (some centres not stated),0.0607
12,Cc1c(CCN)c2ccccc2n1-c1ccccc1,-0.941
13,COc1ccc2c(CCN)c[nH]c2c1,1.85
14,CS(C)=C1C(=O)NC(=O)N(c2ccccc2)C1=O,-0.568
15,CN1CCN(Cc2cc(Br)cs2)CC1,-0.912
16,CCCN1CCC(NC2CCC(O)CC2)CC1 (configuration not stated),-0.937
17,CN1CCCN(CC2=CC[C@H]3C[C@@H]2C3(C)C)CC1,2.75
18,Fc1ccc(N2CCN(Cc3cccs3)CC2)cc1,1.43
